For some of these results: At least one compound was matched to its structure with a doubt left. Some results were stated once for a whole list of compounds, not compound by compound.
Key:
[1] = tested on: healthy donor platelets; experiment: Procoagulant platelet flow cytometry assay (GSAO+/CD62P+), healthy donor whole blood with HIT patient plasma; format: cell-based, human; conditions: agonist stimulation of healthy donor whole blood
Protocol: The GSAO-based whole blood PP flow cytometry assay established by the inventors^4 was modified to incorporate patient plasma. Citrated whole blood (13 μL) was incubated with and without agonists, unfractionated heparin (Pfizer) and plasma (5 μL) for 10 minutes with final concentrations of 2.5 mM Gly-Pro-Arg-Pro peptide (Sigma-Aldrich) and 2.5 mM calcium chloride. […] In some experiments, blood was pre-treated with 10 μg/mL IV.3 (StemCell Technologies), a monoclonal antibody against FcγRIIa, for 15 minutes prior to the reaction. Samples were incubated with antibodies to CD45, CD41a, CD62P—or isotype control, and GSAO or GSCA, and fixed before analysis on a BD LSRFortessa X-20.
Representative flow cytometry plots from a single donor comparing no plasma with HIT− or HIT+ plasma indicate that addition of HIT+ plasma altered the sub-population profile of the platelets with a marked increase in procoagulant (GSAO+/CD62P+) platelets (FIG. 1A). […] There was also a smaller but statistically significant increase seen with HIT− plasma compared to no plasma (53.63±6.82 vs 42.05±4.24, P<0.05) (FIG. 1B).

[2] = tested on: healthy donor platelets; experiment: Procoagulant platelet flow cytometry assay, healthy donor whole blood with VITT patient plasma; format: cell-based, human; conditions: for change in PP response: fondaparinux 1.2 μg/mL

| Structure (SMILES) | alpha granule release measured by P-selectin [1] [%] | change in PP response ([2]; VITT plasma from patients who did not respond clinically) | change in PP response ([2]; pre-treatment VITT plasma from four patients who clinically responded to fondaparinux (FIG. 10F)) | inhibition of the PP response ([2]; fondaparinux 100 μg/mL, VITT plasma, all patients) |
| --- | --- | --- | --- | --- |
| Nc1ncnc2c1ncn2[C@@H]1O[C@H](COP(=O)(O)OP(=O)(O)O)[C@@H](O)[C@H]1O [ADP, adenosine diphosphate] | > 90 | – | – | – |
| CO[C@H]1O[C@H](COS(=O)(=O)O)[C@@H](O[C@@H]2O[C@@H](C(=O)O)[C@@H](O[C@H]3O[C@H](COS(=O)(=O)O)[C@@H](O[C@@H]4O[C@H](C(=O)O)[C@@H](O[C@H]5O[C@H](COS(=O)(=O)O)[C@@H](O)[C@H](O)[C@H]5NS(=O)(=O)O)[C@H](O)[C@H]4O)[C@H](OS(=O)(=O)O)[C@H]3NS(=O)(=O)O)[C@H](O)[C@H]2OS(=O)(=O)O)[C@H](O)[C@H]1NS(=O)(=O)O [fondaparinux] | – | no change | decreasing trend | Maximum inhibition |

Source: patent publication US20250264483A1, “IDENTIFICATION OF PROTHROMBOTIC CONDITIONS” (Sydney Local Health District, priority 2020, published 2025)
